Source: article PMC9599063
Results are given in words; binding and its absence hold for the method and conditions named. Binding seen in cells or lysates may run through a third protein. Some results given as binding are weak or reduced against the parent protein; the word gives no strength. One block for each substance: values may come before it.

Amino acid sequences for entries named in this document (tags omitted).
UniProt P17931: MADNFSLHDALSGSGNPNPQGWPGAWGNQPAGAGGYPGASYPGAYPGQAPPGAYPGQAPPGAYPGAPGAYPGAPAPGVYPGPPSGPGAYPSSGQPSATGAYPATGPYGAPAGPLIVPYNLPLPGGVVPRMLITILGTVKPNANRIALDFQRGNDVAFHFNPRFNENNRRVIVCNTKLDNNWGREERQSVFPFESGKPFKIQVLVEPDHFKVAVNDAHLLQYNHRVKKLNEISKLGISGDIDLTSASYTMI

Experiments:
[1] = biological target: T1, Melanoma cell adhesion molecule (MCAM, CD146, MUC18) (human (endogenous in A375 and 92.1)) (UniProt P43121); assay: co-IP; A375 or 92.1 cells lysed in RIPA buffer (150 mM NaCl, 50 mM Tris-HCl, 1% NP40, pH 7.4); anti-MCAM antibody or mouse immunoglobulin, protein A/G agarose, 4 °C; galectin-3 immunoblot
T1 sequence (chain, N- and O-linked glycans (sites not told for this experiment)): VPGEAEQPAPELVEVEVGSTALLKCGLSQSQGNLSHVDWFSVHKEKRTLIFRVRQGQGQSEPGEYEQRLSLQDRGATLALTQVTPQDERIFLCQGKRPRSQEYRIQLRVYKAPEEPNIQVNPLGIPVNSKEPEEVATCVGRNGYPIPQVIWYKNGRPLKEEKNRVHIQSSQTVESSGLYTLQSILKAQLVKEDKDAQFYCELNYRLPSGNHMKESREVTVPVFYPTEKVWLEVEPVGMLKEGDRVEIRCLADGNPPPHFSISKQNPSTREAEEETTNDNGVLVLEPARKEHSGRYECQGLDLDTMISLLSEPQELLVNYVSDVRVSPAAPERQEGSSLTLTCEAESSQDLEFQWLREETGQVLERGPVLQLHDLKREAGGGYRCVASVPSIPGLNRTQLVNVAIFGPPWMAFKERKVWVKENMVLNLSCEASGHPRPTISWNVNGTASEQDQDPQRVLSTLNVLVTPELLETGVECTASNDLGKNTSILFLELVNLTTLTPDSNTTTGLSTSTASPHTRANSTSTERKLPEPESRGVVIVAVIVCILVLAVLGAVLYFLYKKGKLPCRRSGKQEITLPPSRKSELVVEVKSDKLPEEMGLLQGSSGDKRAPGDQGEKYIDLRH

[2] = biological target: T1, Melanoma cell adhesion molecule (MCAM, CD146, MUC18) (human (endogenous in A375 and 92.1)); assay: cross-linking; A375 cells treated with 10 µg/mL galectin-3 or BSA for 30 min at 37 °C, 3 mM BS3 on ice 30 min, lysed in SDS-sample buffer without β-mercaptoethanol, MCAM immunoblot
[3] = biological target: T2, MCAM treated with N-glycanase PNGaseF (human (endogenous in A375)) (UniProt P43121); assay: co-IP; A375 cells incubated with galectin-3 (5 µg/mL) in serum-free medium 2 h at 37 °C, lysed in 1% Triton X-100 in PBS; anti-MCAM antibody or control immunoglobulin, protein A/G beads; beads incubated with PBS, N-glycanase PNGaseF (5U) or O-glycanase (10 mU) overnight at 37 °C, washed; galectin-3 immunoblot; only the binder purified
T2 sequence (chain, N-linked glycans removed by PNGaseF): T1 sequence (chain, N- and O-linked glycans (sites not told for this experiment))

[4] = biological target: T3, MCAM treated with O-glycanase (human (endogenous in A375)) (UniProt P43121); assay: as above
T3 sequence (chain, unsubstituted Galβ1,3GalNAc-α-O- glycans cleaved by O-glycanase): T1 sequence (chain, N- and O-linked glycans (sites not told for this experiment))

[5] = biological target: T1, Melanoma cell adhesion molecule (MCAM, CD146, MUC18) (human (endogenous in A375 and 92.1)); assay: as above

binding [1]: binds
Substance: Galectin-3 (endogenous, melanoma cells) (from UniProt P17931 1-250)

binding [2]: binds
Substance: Melanoma cell adhesion molecule (MCAM, CD146, MUC18) (from UniProt P43121 24-646) (receptor)

binding [3]: binds
binding [4]: binds weakly
binding [5]: binds
Substance: Recombinant full-length human galectin-3 (from UniProt P17931 1-250) (ligand)
